# Test results taken from PubChem BioAssay AID2685 (National Center for Advancing Translational Sciences (NCATS), 2010).
# This is one part of the list. These are further read-outs of the screen, such as a control signal, another cell line or another target. No call is given for them. Most of these compounds were active or inconclusive in the main read-out, so they are no random draw. Words in brackets tell the shape of the fitted curve; partial curves, single points and poor fits give uncertain potencies.
# Assay: qHTS Assay for Lipid Storage Modulators in Drosophila S3 Cells;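 as to cell number change: cells counted by Cell Tracker Red CMTPX staining in the red channel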
# Conditions: BODIPY lipid droplet fluorescence, 18-24 h; for cell number change: measured here: cell count max response, cells fed with added oleic acid
# In short: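 Drosophila S3 cells got compounds at several concentrations plus oleic acid (400 uM solution). Laser-scanning cytometry with 488 nm excitation read lipid droplets at 500-530 nm and cells at 575-640 nm. Percent activity was relative to 20 uM Triacsin C.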
# [1] = measured here: cell number channel AC50, cells fed with added oleic acid
# [2] = measured here: lipid fluorescence (Fed channel) AC50, cells fed with added oleic acid
SMILES,cell number change [%],AC50 [1],AC50 [2]
O=C(Nc1ccc([N+](=O)[O-])cc1)c1cn(-c2ccccc2)nc1-c1cc2ccccc2o1,-37.3,"7.31 µM [falling, partial curve, poor fit]","5.17 µM [falling, full curve]"
COc1ccc(OCCn2cncn2)cc1,6.2,,"3.66 µM [falling, partial curve]"
CC1CC2=C(CC1/C=N/NC(N)=S)C(C)(C)CCC2 (stereo unspecified),-14.5,"0.82 µM [rising, partial curve]","0.517 µM [rising, full curve]"
Cc1nn(Cc2ccccc2Cl)c(C)c1NC(=O)c1cc(-c2ccc(F)cc2)on1,,"0.116 µM [rising, partial curve, poor fit]","0.291 µM [rising, partial curve, poor fit]"
CCOc1ccc(CN(C(=O)c2cccs2)C2CCS(=O)(=O)C2)cc1 (stereo unspecified),-36.1,"29.1 µM [falling, single point]",
CCOCCOc1cccc(C(=O)NC(C)c2ccc3ccccc3c2)c1 (stereo unspecified),,,"20.6 µM [falling, single point]"
Cc1ccc(SCCN2CCC(C(C)(C)C)CCC2=O)cc1 (stereo unspecified),-8.74,,
COc1cccc(NC(=O)COc2cccc(-n3cnnn3)c2)c1,-8.44,"0.0326 µM [falling, full curve, poor fit]","0.0259 µM [falling, full curve, poor fit]"
Cc1nc(C)c(-c2nnc(-c3ccc(C(C)(C)C)cc3)o2)cc1C(=O)NN,51.5,"29.1 µM [rising, single point]","29.1 µM [rising, single point]"
COc1ccccc1CC(=O)NNC(=O)c1ccc(C(C)(C)C)cc1,24,,
Cc1cc(NC(=O)CCN2CCCCC2)ccc1Br,23.5,,
Cc1cc(=O)[nH]c(SCC(=O)Nc2cccc(S(=O)(=O)N3CCOCC3)c2)n1,8.84,,"0.517 µM [rising, full curve]"
CC(=O)Oc1ccc2oc(/C=C/N(C)C)c([N+](=O)[O-])c2c1,-11.4,"0.82 µM [rising, full curve]","1.3 µM [rising, full curve]"
Cc1ccc2nc(Cl)c(/C=N/NC(=O)[C@H]3C[C@@H]3c3ccccc3)cc2c1,21.7,"1.03 µM [rising, full curve, poor fit]","0.259 µM [rising, full curve, poor fit]"
CC1CCCN(C(=O)COc2ccc(-c3ccccc3)cc2)C1 (stereo unspecified),,"6.51 µM [rising, single point]","6.51 µM [rising, single point]"
CCc1ccc2[nH]c(=O)c(CN(Cc3ccc(OC)cc3)Cc3nnnn3CCOC)cc2c1,19.5,"0.082 µM [rising, full curve, poor fit]","4.61 µM [rising, full curve]"
Cc1ccc(C(C)C)c(OCCn2c(=O)oc3ccccc32)c1,-54.3,,"0.58 µM [rising, partial curve, poor fit]"
Cc1ccc(N=Nc2ccc(O)cc2)c(Br)c1,-46.8,"23.1 µM [falling, single point]",

SMILES,cell number change [%],AC50 [1],AC50 [2]
O=C(COC(=O)c1cc([N+](=O)[O-])ccc1NCCO)Nc1ccc2c(c1)OCO2,-51,,
CCC(C(=O)NC1CCCC1)N(Cc1ccco1)C(=O)CNS(=O)(=O)c1ccccc1 (stereo unspecified),-10.1,,"6.51 µM [rising, single point]"
O=C(CSc1nnc(-c2c[nH]c3ccccc23)n1CC1CCCO1)Nc1ccc2c(c1)OCCO2 (stereo unspecified),,,"3.66 µM [rising, partial curve]"
CC(C)(C)C(=O)Nc1nc(C2CCCN2S(=O)(=O)c2ccc(Cl)cc2)cs1 (stereo unspecified),60.8,"18.4 µM [rising, single point]","29.1 µM [rising, single point]"
CCN(CC)S(=O)(=O)c1cccc(NC(=O)CC2CCCC2)c1,12.8,,
CN(C)S(=O)(=O)c1ccc(NC(=O)CCNC(=O)c2ccc([N+](=O)[O-])cc2)cc1,24.3,,
c1ccc2c(-n3cnnn3)cccc2c1,10.8,,
O=c1ccc2c(-c3ccccc3)c3ccc(O)cc3oc-2c1,-97.2,"23.1 µM [falling, single point]","16.4 µM [falling, partial curve]"
CCCOC(=O)c1ccc(NC(=O)C2C3C=CC(O3)C2C(=O)O)cc1 (stereo unspecified),,,"0.103 µM [rising, full curve, poor fit]"
CCOC(=O)c1[nH]ncc1CN1CCC(Cc2cccc(OC)c2)(C(=O)OCC)CC1,-20,,"0.13 µM [falling, full curve, poor fit]"
COc1ccc(CCNC(=O)Cn2c(=O)n(-c3cc(F)ccc3F)c(=O)c3sccc32)cc1OC,33.2,"14.6 µM [rising, partial curve, poor fit]","14.6 µM [rising, partial curve]"
CN(Cc1ccccc1)S(=O)(=O)c1ccc2c(c1)n(C)c(=O)n2C,160,"16.4 µM [rising, partial curve]","18.4 µM [rising, partial curve]"
O=C1N/C(=C/c2ccc(N3CCOCC3)o2)C(=O)N1c1ccccc1,-34.6,"0.231 µM [falling, full curve, poor fit]","7.31 µM [falling, partial curve]"
CCC(C)n1c(SCC(=O)NCc2ccco2)nnc1-c1cccc(S(=O)(=O)N2CCOCC2)c1 (stereo unspecified),43.7,"7.31 µM [rising, partial curve]","0.82 µM [falling, full curve, poor fit]"
O=[N+]([O-])c1cc(S(=O)(=O)N2CCCC2)ccc1OCc1ccccc1,-1.32,,
O=C(COC(=O)c1cc(S(=O)(=O)N2CCOCC2)ccc1O)NCCc1ccccc1,32.6,"32.6 µM [rising, single point]",
Cc1cccc(N2C(=NC(=O)c3ccccc3)SC3CS(=O)(=O)CC32)c1 (stereo unspecified),-18.5,,

# Looked up one by one from above (two):
SMILES,cell number change [%],AC50 [1],AC50 [2]
O=C1N/C(=C/c2ccc(N3CCOCC3)o2)C(=O)N1c1ccccc1,-34.6,"0.231 µM [falling, full curve, poor fit]","7.31 µM [falling, partial curve]"
CN(C)S(=O)(=O)c1ccc(NC(=O)CCNC(=O)c2ccc([N+](=O)[O-])cc2)cc1,24.3,,
